Assay results taken from paper PMC8763920 (Nature Communications, 2022).
Some peptides are written in HELM: one residue between dots, names in brackets for other building blocks, links after the first $.

Assay: general procedure: Fmoc solid-phase peptide synthesis; rink amide resin; HATU/DIPEA
Conditions: cyclisation step

Substance	cyclisation yield [%]
PEPTIDE1{[ac].E.N.P.E.[XL].I.L.D.[XL].H.V.Q.R.V.M.[am]}|CHEM1{[mBDMT]}$PEPTIDE1,CHEM1,6:R3-1:R1|PEPTIDE1,CHEM1,10:R3-1:R2$$$V2.0	63
PEPTIDE1{[ac].Q.S.Q.Q.T.F.[XL-S].N.L.W.R.L.L.[XL-S].Q.N.[am]}|CHEM1{[C8DT]}$PEPTIDE1,CHEM1,8:R3-1:R1|PEPTIDE1,CHEM1,15:R3-1:R2$$$V2.0	69
PEPTIDE1{E.[XL].I.L.D.[XL].H}|CHEM1{[mBDT]}$PEPTIDE1,CHEM1,2:R3-1:R1|PEPTIDE1,CHEM1,6:R3-1:R2$$$V2.0	64
PEPTIDE1{[ac].E.N.P.E.[XL].I.L.D.[XL].H.V.Q.R.V.M.[am]}|CHEM1{[SC8S]}$PEPTIDE1,CHEM1,6:R3-1:R1|PEPTIDE1,CHEM1,10:R3-1:R2$$$V2.0	52
PEPTIDE1{[ac].E.N.P.E.[XL].I.L.D.[XL].H.V.Q.R.V.M.[am]}|CHEM1{[pBDMT]}$PEPTIDE1,CHEM1,6:R3-1:R1|PEPTIDE1,CHEM1,10:R3-1:R2$$$V2.0	52
PEPTIDE1{[ac].Q.S.Q.Q.T.F.[XL].N.L.W.R.L.L.[XL].Q.N.[am]}|CHEM1{[BPDMT]}$PEPTIDE1,CHEM1,8:R3-1:R1|PEPTIDE1,CHEM1,15:R3-1:R2$$$V2.0	55
PEPTIDE1{[FITC].[bAla].K.K.Y.A.K.Q.L.A.D.[XL].I.I.K.[XL].A.T.E.[am]}|CHEM1{[mBDMT]}$PEPTIDE1,CHEM1,12:R3-1:R1|PEPTIDE1,CHEM1,16:R3-1:R2$$$V2.0	74
PEPTIDE1{[ac].Q.S.Q.Q.T.F.[XL].N.L.W.R.L.L.[XL].Q.N.[am]}|CHEM1{[BDMT14]}$PEPTIDE1,CHEM1,8:R3-1:R1|PEPTIDE1,CHEM1,15:R3-1:R2$$$V2.0	74
PEPTIDE1{[ac].E.N.P.E.[XL].I.L.D.[XL].H.V.Q.R.V.M.[am]}|CHEM1{[SC6S]}$PEPTIDE1,CHEM1,6:R3-1:R1|PEPTIDE1,CHEM1,10:R3-1:R2$$$V2.0	59
PEPTIDE1{[ac].Q.S.Q.Q.T.F.[XL-S].N.L.W.R.L.L.[XL-S].Q.N.[am]}|CHEM1{[C7DT]}$PEPTIDE1,CHEM1,8:R3-1:R1|PEPTIDE1,CHEM1,15:R3-1:R2$$$V2.0	65
PEPTIDE1{[ac].E.N.P.E.[XL].I.L.D.[XL].H.V.Q.R.V.M.[am]}|CHEM1{[SC5S]}$PEPTIDE1,CHEM1,6:R3-1:R1|PEPTIDE1,CHEM1,10:R3-1:R2$$$V2.0	55
PEPTIDE1{[ac].E.N.P.E.[XL].I.L.D.[XL].H.V.Q.R.V.M.[am]}|CHEM1{[SC7S]}$PEPTIDE1,CHEM1,6:R3-1:R1|PEPTIDE1,CHEM1,10:R3-1:R2$$$V2.0	49
